Measured values as given in patent US11156615B2 (priority 2015, dated 2021).
Positions count from the first letter of the chain named.

B1: ttGGBP17C.6: affinity-tuning mutant, 17C background, SEQ ID NO: 71 (protein)
chain: MKQLNIGVAIYKFDETCMTGVRNAMTAEAQGKAKLNMVDSQNSQPTQNDQVDLFITKKMNALAINPVDRTAAGTIIDKAKQANIPVVFFNREPLPEDMKKWDKVYYVGAKAEQSGILQGQIMADYWKAHPEADKNHDGVMQYVMLMGQPGHQDAILRTQYSIQTVKDAGIKVQELAKDYANWDRVTAHDKMAAWLSSFGDKIEAVFANNDDMALGAIEALKSAGYFTGNKYIPVVGVDATAPGIQAIKDGTLLGTVLNDAKNQAKATFNIAYELAQGITPTKDNIGYDITDGKYVWIPYKKITKDNISDAEQGGSHHHHHH
modifications: ttGGBP17C.6 (affinity-tuning mutant, 17C background (Table 6) with signal peptide replaced with M and GGSHHHHHH at C-terminus)
B2: ttGGBP17C.8: affinity-tuning mutant, 17C background, SEQ ID NO: 73 (protein)
chain: B1 chain with E15D, T16N
modifications: ttGGBP17C.8 (affinity-tuning mutant, 17C background (Table 6) with signal peptide replaced with M and GGSHHHHHH at C-terminus)
B3: ttGGBP17C.23: affinity-tuning mutant, 17C background, SEQ ID NO: 81 (protein)
chain: B1 chain with E15D, A260Q
modifications: ttGGBP17C.23 (affinity-tuning mutant, 17C background (Table 6) with signal peptide replaced with M and GGSHHHHHH at C-terminus)
B4: ttGGBP17C.11: affinity-tuning mutant, 17C background, SEQ ID NO: 76 (protein)
chain: B1 chain with E15D, T240A
modifications: ttGGBP17C.11 (affinity-tuning mutant, 17C background (Table 6) with signal peptide replaced with M and GGSHHHHHH at C-terminus)
B5: ttGGBP17C.21: affinity-tuning mutant, 17C background, SEQ ID NO: 79 (protein)
chain: B1 chain with E15D, N258A
modifications: ttGGBP17C.21 (affinity-tuning mutant, 17C background (Table 6) with signal peptide replaced with M and GGSHHHHHH at C-terminus)
B6: ttGGBP17C.27: affinity-tuning mutant, 17C background, SEQ ID NO: 85 (protein)
chain: B1 chain with E15D, A260F
modifications: ttGGBP17C.27 (affinity-tuning mutant, 17C background (Table 6) with signal peptide replaced with M and GGSHHHHHH at C-terminus)

Experiment: Analysis of emission spectra components: singular value decomposition and Gaussian fits of S1/S2 electronic transitions
Settings: Acrylodan conjugate of ttGGBP.17C mutant

Point of comparison: B1, “Gaussians Peak S1” value 511 nm. Against it:
- B2 — higher, 533 nm
- B3 — higher, 526 nm
- B4 — higher, 541 nm
- B5 — higher, 526 nm
- B6 — higher, 523 nm

Point of comparison: B3, “Gaussians Peak S2” value 474 nm. Against it:
- B1 — lower, 448 nm
- B2 — higher, 496 nm
- B4 — higher, 487 nm
- B5 — higher, 475 nm
- B6 — higher, 477 nm

Point of comparison: B4, “SVD component fraction C1” value 0.95. Against it:
- B2 — lower, 0.93

Point of comparison: B2, “SVD component fraction C2” value 0.07. Against it:
- B4 — lower, 0.03

Same assay, conditions: Acrylodan conjugate of ttGGBP.17C mutant; apo

Point of comparison: B6, “Gaussians Fraction f(S1) Apo” value 0.38. Against it:
- B1 — higher, 0.72
- B2 — lower, 0.30
- B3 — lower, 0.31
- B4 — lower, 0.35
- B5 — lower, 0.33

Same assay, conditions: Acrylodan conjugate of ttGGBP.17C mutant; glucose-saturated

Point of comparison: B2, “Gaussians Fraction f(S1) Sat” value 0.00. Against it:
- B4 — higher, 0.25

Same assay, conditions: Badan conjugate of ttGGBP.17C mutant

Point of comparison: B6, “Gaussians Peak S1” value 529 nm. Against it:
- B1 — lower, 525 nm
- B3 — higher, 532 nm
- B5 — lower, 523 nm

Point of comparison: B3, “Gaussians Peak S2” value 475 nm. Against it:
- B1 — lower, 473 nm
- B6 — higher, 487 nm

Point of comparison: B3, “SVD component fraction C1” value 0.97. Against it:
- B1 — lower, 0.90
- B6 — lower, 0.96

Point of comparison: B1, “SVD component fraction C2” value 0.09. Against it:
- B3 — lower, 0.03
- B6 — lower, 0.04

Same assay, conditions: Badan conjugate of ttGGBP.17C mutant; apo

Point of comparison: B1, “Gaussians Fraction f(S1) Apo” value 0.39. Against it:
- B3 — higher, 0.95
- B5 — higher, 1.00
- B6 — higher, 1.00

Same assay, conditions: Badan conjugate of ttGGBP.17C mutant; glucose-saturated

Point of comparison: B3, “Gaussians Fraction f(S1) Sat” value 0.85. Against it:
- B1 — lower, 0.15
- B6 — lower, 0.82

Experiment: Glucose-dependent fluorescence emission intensity spectra of conjugates (Nanodrop3300)
Assay type: biochemical
Settings: Acrylodan conjugate; Nanodrop, room temperature
Excerpt: Semi-synthetic FRSs were engineered by site-specifically attaching thiol-reactive, environmentally sensitive fluorophores that respond to ligand-mediated conformational changes. Identification of FRS candidates that are useful for sensing applications comprises three steps: • 1. Cysteine scan. Mutant glucose-binding proteins containing single cysteines are constructed for site-specific attachment of thiol-reactive fluorophores. […] Candidate positions fall into three classes: endosteric, replacing a residue that contacts the ligand directly; peristeric, located at the rim of the binding site; allosteric (Marvin et al. 1997 Proc Natl Acad Sci USA, 94, 4366-71; Marvin 1998 J Am Chem Soc, 120, 7-11), located outside the binding site at sites that undergo local structural changes in concert with the hinge-bending motion. • 2. Fluorophore screening. Thiol-reactive, environmentally sensitive fluorophores are attached to each cysteine mutant prepared in step 1. • 3. Evaluation of the glucose-mediated change of all the fluorescent conjugates prepared in step 2. Responses to ligand binding in which there is both a change in fluorescence emission intensity and spectral shape was essential for chemometric applications, because such changes enable ratiometric measurements. Changes in spectral shape typically are accompanied by a shift in the wavelength of the emission intensity maxima. Three classes of fluorescent responses are possible: • i. No response. • ii. Monochromatic response (emission intensity increases or decreases without a change in spectral shape) • iii.

Point of comparison: B4, “Emission wavelength λ1 (optimal ratiometry wavelength)” value 487 nm. Against it:
- B2 — the same, 487 nm

Point of comparison: B4, “Emission wavelength λ2 (optimal ratiometry wavelength)” value 500 nm. Against it:
- B2 — higher, 529 nm

Same assay, conditions: Badan conjugate; Nanodrop, room temperature

Point of comparison: B1, “Emission wavelength λ1 (optimal ratiometry wavelength)” value 467 nm. Against it:
- B3 — higher, 527 nm
- B5 — higher, 532 nm
- B6 — higher, 523 nm

Point of comparison: B5, “Emission wavelength λ2 (optimal ratiometry wavelength)” value 494 nm. Against it:
- B1 — higher, 525 nm
- B3 — lower, 490 nm
- B6 — lower, 490 nm
